Measurements reported in PubChem BioAssay AID504808 (Drosophila RNAi Screening Center, 2011)
In all, the deposit lists about 21,000 reagents; below is a random part of those with a known target gene and a result. Over the whole deposit, 18 (0.084%) were called active. 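Raw counts without plate normalisation, one of two replicates; the ratio scores behind the calls were not deposited.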 Names joined by + are all predicted targets of the reagent. Not given: the amount of reagent, the time to read-out.

Screen: 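Genes whose loss lifts activity of an E2F-responsive reporter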 (primary screen)
Cell system: Drosophila S2 cells
Reagents: long dsRNA against Drosophila genes
Measurement: 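Dual luciferase plate measurements; E2F-specific signal taken as firefly over Renilla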
Reading the numbers: E2F firefly: higher = more E2F reporter activity; Renilla normaliser: higher = more normaliser reporter signal
Rule for the call: 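a knock-down counted as active when the firefly/Renilla E2F signal rose above 50%, a threshold chosen arbitrarily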

Target gene	dsRNA	E2F firefly, rep 1	Renilla normaliser, rep 1	Call
DUBAI + Tmem18	DRSC05344	1.31e5	5309	inactive
Icmt (GeneID 39478)	DRSC09834	1.20e5	7662	inactive
mura (GeneID 41145)	DRSC16483	1.18e5	6154	inactive
mura (GeneID 41145)	DRSC16484	73215	4719	inactive
CG4646 (GeneID 36459)	DRSC06876	1.01e5	4188	inactive
CG5339 (GeneID 37794)	DRSC04496	80596	3583	inactive
Acat2 (GeneID 38147)	DRSC08630	1.01e5	3978	inactive
CAH7 (GeneID 41238)	DRSC15524	1.45e5	6323	inactive
GIIIspla2 (GeneID 31747)	DRSC18094	7652	692	inactive
Yeti (GeneID 7354404)	DRSC21138	1.36e5	2867	active
CG13018 (GeneID 50224)	DRSC06274	98319	4571	inactive
CG11839 (GeneID 43006)	DRSC14398	1.43e5	6070	inactive
CG42375 + CG9288	DRSC16468	77614	3225	inactive
CG3868 (GeneID 39580)	DRSC10380	81415	3694	inactive
mthl4 (GeneID 36960)	DRSC06998	1.54e5	5288	inactive
CG7330 (GeneID 40007)	DRSC10813	1.73e5	8786	inactive
CG7330 (GeneID 40007)	DRSC10814	1.60e5	8578	inactive
CG6431 (GeneID 34476)	DRSC02956	1.61e5	5232	inactive
E(spl)malpha-BFM (GeneID 43153)	DRSC16994	61334	5131	inactive
Zyx (GeneID 317824)	DRSC17186	75843	2897	inactive
CG9760 (GeneID 39388)	DRSC11101	1.30e5	6542	inactive
CG1486 (GeneID 33108)	DRSC20508	1.51e5	5823	inactive
Adgf-A2 (GeneID 64879)	DRSC09507	1.23e5	3922	inactive
Ir68b (GeneID 39378)	DRSC10251	1.36e5	7716	inactive
cyst (GeneID 35237)	DRSC02023	75212	3309	inactive
CG4592 (GeneID 34317)	DRSC02761	91490	3889	inactive
CG14074 (GeneID 40051)	DRSC10079	1.53e5	7966	inactive
Tab2 (GeneID 37216)	DRSC07481	1.44e5	4758	inactive
Charon (GeneID 33303)	DRSC00679	80334	3834	inactive
CG9997 (GeneID 43395)	DRSC16591	1.30e5	7346	inactive
CG14095 (GeneID 40112)	DRSC10098	1.43e5	6001	inactive
CG16970 (retired record) (GeneID 34740)	DRSC01310	1.28e5	6029	inactive
CG16970 (retired record) (GeneID 34740)	DRSC02549	88430	3628	inactive
CG10340 (GeneID 42020)	DRSC14232	70312	3799	inactive

Next part (3 carried over from the part before).
Target gene	dsRNA	E2F firefly, rep 1	Renilla normaliser, rep 1	Call
CG16970 (retired record) (GeneID 34740)	DRSC01310	1.28e5	6029	inactive
CG16970 (retired record) (GeneID 34740)	DRSC02549	88430	3628	inactive
CG10340 (GeneID 42020)	DRSC14232	70312	3799	inactive
CG17108 (GeneID 34471)	DRSC02576	1.50e5	5660	inactive
dsd (GeneID 43315)	DRSC13829	86877	2543	inactive
dsd (GeneID 43315)	DRSC15850	1639	964	inactive
Nipped-A (GeneID 35483)	DRSC04882	98726	3946	inactive
Nipped-A (GeneID 35483)	DRSC04883	1.01e5	4717	inactive
Nipped-A (GeneID 35483)	DRSC04884	1.07e5	4238	inactive
Nipped-A (GeneID 35483)	DRSC07738	90533	4546	inactive
CG7054 (GeneID 42643)	DRSC16185	63513	3061	inactive
bisc (GeneID 37443)	DRSC04083	76982	3446	inactive
CG17258 (GeneID 33517)	DRSC00495	1.19e5	4462	inactive
CG12551 (retired record) (GeneID 35518)	DRSC04857	1.15e5	4629	inactive
CG12551 (retired record) (GeneID 35518)	DRSC04864	1.12e5	4552	inactive
CG33111 (GeneID 50068)	DRSC14208	1.10e5	5500	inactive
CG33111 (GeneID 50068)	DRSC14444	1.12e5	6118	inactive
CG7295 (GeneID 33365)	DRSC00699	1.81e5	7600	inactive
Set1 (GeneID 3354971)	DRSC20930	1.15e5	5523	inactive
Set1 (GeneID 3354971)	DRSC20931	1.20e5	4927	inactive
mRpL43 (GeneID 37750)	DRSC04508	1.18e5	5169	inactive
Hibch (GeneID 41869)	DRSC15705	71463	3403	inactive
Nup107 (GeneID 34481)	DRSC01999	1.32e5	4393	inactive
CG5068 (GeneID 39032)	DRSC10476	67245	3485	inactive
Idh3a (GeneID 32940)	DRSC19446	1.36e5	6333	inactive
PRL-1 (GeneID 34952)	DRSC03393	97581	4197	inactive
